Out of some 52,000 sequences screened, about 210 (0.4%) were called active.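 The calls were made as follows: active = gene whose silencing raises cell survival under the drug, median off-target-corrected z-score across its silencing RNAs 2 or more; inactive = the rest.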 The list shows a part of the results.
Experiment: Resistance to Poly (ADP-Ribose) Polymerase inhibitor: Gene Identification via Genome-wide siRNA Screen
Settings: mouse BRCA2 R2336H ES cells, olaparib, CellTiter-Glo viability; active compounds read high
Method in brief: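 Mouse BRCA2 R2336H ES cells were reverse-transfected with siRNA (20 nM final), treated at 48 h with 500 nM olaparib, and read by CellTiter-Glo after 72 h. Scores: MAD-based z per siRNA, median per gene, seed off-target correction.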

Sequence | z-score
CCAAGUUGUAUUAAAGUCUTT against Nfs1 | inactive: 0.485
GCUUUAGUGACGGCUCGAATT against Zfp29 | inactive: 1.01
GGAGUCUUCAGGAAGAAAGTT against Rars | inactive: -1.31
GGUGCUGUCAUUUGAAUUCTT against Atp13a | inactive: -0.0626
GGUGUAGCUGUGGUGGGUATT against Olfr360 | inactive: -1.33
GGAAGCAGUUCAUGUUAAGTT against Dtx4 | inactive: -0.106
GGUUGAAAAGUAUCAAAGATT against 3000003F02Rik | inactive: 0.203
GGCCAUAUACUGGGCUAUATT against Skiv2l | inactive: -2.19
GGCAUAUGCCAGUAUCGGUTT against Defb8 | inactive: -0.753
GGCACUUGGAGGUAGUUUCTT against C330027C09Rik | inactive: -0.493
CCAAAUGCGAUUUUAUAACTT against Trps1 | inactive: 2.73
GGUUGGUUUUGUGUUUGCUTT against Pitx1 | inactive: 1.21
GCCAUAUCAACUCAGAUCATT against Ssh2 | inactive: 1.91
GCAGCUCCCAAUCUCACUUTT against LOC545554 | inactive: 0.0848
GGCAGUAAUAGGAGACCAUTT against Ces3 | inactive: 0.171
GGACAAUGUUGAAUCCUGUTT against 2810430M08Rik | inactive: -0.454
CCAGAAAGAACCUGCCGUATT against Tdgf1 | inactive: 0.569
GGUUUGUCUCAGAGAUUGUTT against Aloxe3 | inactive: 1.14
GCUUUGCAUAUGAUUCUACTT against Nt5c2 | inactive: -0.137
GGAACGAAGUCCCUAAAGATT against Csf3 | inactive: -0.606
GCCUUAACCACAAUUAAAATT against 4930469P12Rik | inactive: 0.613
GGAGCAAUUCUACCGCUACTT against Fbxw5 | inactive: 0.81
GGAUUCCAUCUUUGUAUGATT against BC009118 | inactive: 0.0699
GCUAAUGACGCGAUAGCCUTT against Gtf2b | inactive: 0.314
GCGAUGACCUUGUUCGGAUTT against F10 | inactive: 1.23
GGUGCCUGUCAUUAAAAUGTT against Lenep | inactive: -1.51
GGUAGACGGAAUCUAUUUATT against Kcnj15 | inactive: 0.149
GCCAGUAUGACUAGUCGUGTT against Oprk1 | inactive: 0.904
GAAUCCCUUCGAGUACGACTT against Fxyd2 | inactive: -0.139

An excerpt of these results, comma-delimited:
Sequence,z-score
GGUGUAGCUGUGGUGGGUATT against Olfr360,inactive: -1.33
GGAAGCAGUUCAUGUUAAGTT against Dtx4,inactive: -0.106

— PubChem BioAssay AID1347423 (Functional Genomics Laboratory (NCATS/FGL), 2020)
